Experimental data: paper PMC6365566
Results are given in words; binding and its absence hold for the method and conditions named.

Biological target: recombinant Can f 6 protein (rCan f 6) (dog (Canis familiaris)) (UniProt H2B3G5)
Assay: AUC; sedimentation velocity (AUC-SV); sample 50 µM; 60,000 rpm; 20 °C; UV detection at 280 nm; continuous C(s) distribution model (SEDFIT); both purified

binding: no binding (tested: 50 µM)
B1: recombinant Can f 6 protein (rCan f 6) (protein, UniProt H2B3G5 16-190)
chain: GSHEEENDVVKGNFDISKISGDWYSILLASDIKEKIEENGSMRVFVKDIEVLSNSSLIFTMHTKVNGKCTKISLICNKTEKDGEYDVVHDGYNLFRIIETAYEDYIIFHLNNVNQEQEFQLMELYGRKPDVSPKVKEKFVRYCQGMEIPKENILDLTQVDRCLQARQSEAAQVSSAE
